Patent publication US20220119540A1 (NANJING GENSCRIPT BIOTECH, published 2022)
No constants are given. Whether binding was seen depends on the method and setting. Some results given as binding are weak or reduced against the parent protein; the word gives no strength. Sequences can lack the tags named with a protein.

Columns and labels:
[1] = target: T1, Recombinant human OX40-His protein (human, UniProt P43489 29-214, limits assumed); assay: ELISA on coated recombinant protein
T1 construct: Recombinant antigen protein; also called recombinant human OX-40 protein; human OX-40 protein; not shown: His tag
T1 sequence (looked up): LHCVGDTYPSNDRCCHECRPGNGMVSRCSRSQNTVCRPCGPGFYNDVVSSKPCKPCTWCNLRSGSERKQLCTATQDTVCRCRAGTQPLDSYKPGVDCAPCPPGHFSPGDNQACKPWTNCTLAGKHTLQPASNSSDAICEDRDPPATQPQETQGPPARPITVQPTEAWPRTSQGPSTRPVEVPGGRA

[2] = target: T1, Recombinant human OX40-His protein; assay: ELISA; plate coated with recombinant human OX-40 (OX40-His), antibody from 1000 ng/ml in 3-fold dilutions, HRP goat anti-human Fab, OD450
[3] = target: T1, Recombinant human OX40-His protein; assay: SPR (Biacore 8K); OX40-HIS amine-coupled to the chip, antibody injected at 2.5-80 nM for 200 s, 400 s dissociation; 1:1 binding fit overlaid

Measured: binding

B1: Chimeric antibody (anti-human OX40, recombinant, human IgG1/kappa constant regions) (antibody, V domains shown)
VH: QIQLVQSGPELKKPGETVKISCKASGYTFTDYSMHWVKQAPGKGLKWMGWISTETGEPTYADDFKGRFAFSLETSASTAYLQIKNLKNEDTASYFCARVRPWYLAVWGAGTTVTVSS
VL: DIQMTQTTSSLSASLGDRVTISCRASQDISNYLNWYQQKPDGTVKLLIYYTSRLYSGVPSRFSGSGSGADYSLTVSNLEQEDIATYFCQQANTLPLTFGAGTKLELK
binds: [1] | [2] | [3]
